Assay results taken from the supplement of paper PMC4683952.
The list shows a part of the results. Rule as the data show it: active = 2 or more and inactive = the rest. Most values lie within the scatter of the assay; repeated measurements hardly agree.

tested on: Lgr5 (MarsCy1-Lgr5-EGFP, U2OS); experiment: cell-surface Lgr5 expression (SCi1 fluorescence, background-subtracted) relative to WT DMSO (fold of DMSO control); higher = more Lgr5 at the plasma membrane; settings: U2OS MarsCy1-Lgr5-EGFP stable; treatment time: overnight; library: ActiProbe-5K (TimTec); 25 µM

| SMILES | cell-surface Lgr5 expression |
| --- | --- |
| O=S(=O)([O-])CCc1cc[n+](CC[n+]2ccccc2)cc1.[Br-] | inactive: 1.38 |
| COc1ccc2[nH]c3c(c2c1)CNCC3 | inactive: 1.07 |
| CCOC(=O)CSc1nc(=O)c(NCC(=O)OC)n[nH]1 | inactive: 1.2 |
| Cc1ccc[n+](CC[n+]2ccc(CCS(=O)(=O)[O-])cc2)c1.[Br-] | inactive: 1.66 |
| c1ccc(COc2ccc(C3Oc4ccccc4C4CC(c5ccccc5)=NN43)cc2)cc1 (centres undefined) | inactive: 0.855 |
| c1ccc(-c2nc3ccccc3o2)cc1 | inactive: 1.04 |
| C=CCC(=O)c1sc(NC)c(C#N)c1N | inactive: 1.21 |
| CCCc1[nH]nc2c1C1(CCSCC1)C(C#N)=C(N)O2 | inactive: 1.16 |
| C/C=C1\CC[N+]2(C)CCC34C(=C(C=O)C1CC32)N(C)c1ccccc14.[Cl-] (centres undefined) | inactive: 1.21 |
| CC1CCc2c(CO)csc2C1 (centres undefined) | inactive: 1.22 |
| CCc1sc(C2C(C#N)=C(N)SC(N)=C2C#N)cc1Br | inactive: 1.4 |
| CC(C)(C)CC(C)(C)NC(=O)CSc1nnc(N)s1 | inactive: 1.22 |
| Cc1cc(C(=O)Nc2c(C)noc2C)sc1C | inactive: 1.09 |
| Oc1ccc(/C=N/n2cnnc2)cc1O | inactive: 1.05 |
| Nc1cc(O)nn1C1CCCCC1 | inactive: 0.95 |
| O=c1nc(O)c(Cl)cn1CC(O)CO (centres undefined) | inactive: 1.22 |
| OCCC1CNCCN1Cc1ccco1 (centres undefined) | inactive: 1.21 |
| CCC(C)(C)C(=O)Nc1nnc(C(C)C)s1 | inactive: 1.07 |
| NC1CCCc2c1[nH]c1ccc(Br)cc21 (centres undefined) | inactive: 0.401 |
| Cc1cccc2c1NC(C)(C)c1ss/c(=N/c3cc(Cl)ccc3Cl)c1-2 | inactive: 1 |
| CCOC(=O)C1=C(C)NC(=S)NC1c1cc(C)sc1C (centres undefined) | inactive: 0.993 |
| C=C(Cl)COC(=O)C1C2C=CC(C2)C1C(=O)O (centres undefined) | inactive: 1.07 |
| COc1cc(Cl)c(S(=O)(=O)NCCOC23CC4CC(CC(C4)C2)C3)cc1Cl | inactive: 1.1 |

15 entries from above, bar-delimited.
SMILES | cell-surface Lgr5 expression
Cc1ccc[n+](CC[n+]2ccc(CCS(=O)(=O)[O-])cc2)c1.[Br-] | inactive: 1.66
c1ccc(COc2ccc(C3Oc4ccccc4C4CC(c5ccccc5)=NN43)cc2)cc1 (centres undefined) | inactive: 0.855
c1ccc(-c2nc3ccccc3o2)cc1 | inactive: 1.04
C=CCC(=O)c1sc(NC)c(C#N)c1N | inactive: 1.21
CCCc1[nH]nc2c1C1(CCSCC1)C(C#N)=C(N)O2 | inactive: 1.16
C/C=C1\CC[N+]2(C)CCC34C(=C(C=O)C1CC32)N(C)c1ccccc14.[Cl-] (centres undefined) | inactive: 1.21
CC1CCc2c(CO)csc2C1 (centres undefined) | inactive: 1.22
CCc1sc(C2C(C#N)=C(N)SC(N)=C2C#N)cc1Br | inactive: 1.4
CC(C)(C)CC(C)(C)NC(=O)CSc1nnc(N)s1 | inactive: 1.22
Cc1cc(C(=O)Nc2c(C)noc2C)sc1C | inactive: 1.09
Oc1ccc(/C=N/n2cnnc2)cc1O | inactive: 1.05
Nc1cc(O)nn1C1CCCCC1 | inactive: 0.95
O=c1nc(O)c(Cl)cn1CC(O)CO (centres undefined) | inactive: 1.22
OCCC1CNCCN1Cc1ccco1 (centres undefined) | inactive: 1.21
CCC(C)(C)C(=O)Nc1nnc(C(C)C)s1 | inactive: 1.07

More results:

| SMILES | cell-surface Lgr5 expression |
| --- | --- |
| Cc1nn2cn[nH]c2nc1=O | inactive: 1.4 |
| CCCc1[nH]nc2c1C1(CCOCC1)C(C#N)=C(N)O2 | inactive: 1.28 |
| Clc1c2c(nc3ccccc13)CCCC2 | inactive: 1.02 |
| Nc1sc2c(c1-c1nnn[nH]1)CCCC2 | inactive: 0.976 |
| CC(C)(C)[Si](C)(C)N1C(=O)C[C@H]1C(=O)O | inactive: 1.16 |
| Nn1c(-n2cccn2)nn([C@@H]2CC(=O)[C@H]3OC[C@@H]2O3)c1=S | inactive: 1.04 |
| O=c1oc2ccccc2cc1C1=Nc2ccccc2SC(c2c3ccccc3cc3ccccc23)C1 (centres undefined) | inactive: 0.825 |
| CS(=O)(=O)N1CCc2cc(NS(=O)(=O)c3ccc(F)cc3)ccc21 | inactive: 1.16 |
| COCCNC(=O)N1CCOCC1 | inactive: 1.05 |
| COc1cc(N)c(Br)cc1Br | inactive: 1.15 |
| Cn1c(=S)n(CCSc2nc3ccccc3[nH]2)c2ccccc21 | inactive: 1.58 |
| Oc1nc(S)nc2[nH]cnc12 | inactive: 1.12 |
| S=C(c1ccc2c(c1)OCCO2)N1CCOCC1 | inactive: 1.25 |
| COc1cc2c(cc1O)C=NCC2 | inactive: 1.34 |
| Cc1[nH]c(=O)c(C#N)c(C)c1CSCc1ccco1 | inactive: 1.1 |
| CC(C)C(=O)Nc1ccn(C2CC(O)C(CO)O2)c(=O)n1 (centres undefined) | inactive: 1.14 |
| O=[N+]([O-])c1ccc(/N=C\c2cc(Br)cc([N+](=O)[O-])c2O)c(O)c1 | inactive: 1.14 |
| On1c2c(c3c4nonc4ccc31)CCCC2 | inactive: 0.562 |
| CCn1c(S)nnc1-c1cc(C2CC2)nc2c1c(C1CC1)nn2C | inactive: 1.24 |
| CC(CCc1cc(C(C)(C)C)c(O)c(C(C)(C)C)c1)c1cc(C(C)(C)C)c(O)c(C(C)(C)C)c1 (centres undefined) | inactive: 1.03 |
| Cn1cc(Cl)c(C(=O)NCCn2cc(Cl)cn2)n1 | inactive: 1.02 |
| CN1CCN(C(=O)CCC(=O)O)CC1 | inactive: 1.34 |
| CCCCN1C(=O)/C(=C\c2c(N3CCCC3)nc3c(C)cccn3c2=O)SC1=S | inactive: 0.76 |

| SMILES | cell-surface Lgr5 expression |
| --- | --- |
| CCOC(=O)c1c(NC(C)=O)sc(SSc2sc(NC(C)=O)c(C(=O)OCC)c2C)c1C | inactive: 1.14 |
| Clc1ccc(C2=Nc3ccc4ccccc4c3C(c3ccc(Cl)cc3)N2)cc1 (centres undefined) | inactive: 0.949 |
| O=C(NCCN1CCOCC1)C(=O)NCCN1CCOCC1 | inactive: 1.17 |
| COC(=O)c1nc(Cl)c(Cl)c(N)c1Cl | inactive: 0.863 |
| O=C(Nc1scc(-c2cccs2)c1C(=O)O)c1cccs1 | inactive: 0.937 |
| CC1n2c(nc3ccccc32)S(=O)(=O)C(c2ccccc2)C1(C)O (centres undefined) | inactive: 1.22 |
| CSc1ccc(/C=N\N=C\c2ccc(SC)cc2)cc1 | inactive: 1.37 |
| C1CC(C2CCNCC2)CCN1.Cl | inactive: 1.01 |
| N#Cc1c(SCC(=O)NC2CC2)sc2c(O)cc(=O)[nH]c12 | inactive: 1.18 |
| C=CCON1C(=O)C2C3C=CC(O3)C2C1=O (centres undefined) | inactive: 1.03 |
| O=C(O)c1nsc(Cl)c1Cl | inactive: 1.33 |
| Oc1cc2nccnc2cc1F | inactive: 0.878 |
| COc1ccc(OS(=O)(=O)C(F)(F)F)cc1 | inactive: 1.21 |
| O=C1Nc2ccccc2/C1=N/NC(=S)S | inactive: 1.27 |
| CCSc1nnc(NC(=O)C2C3C=CC(O3)C2C(=O)O)s1 (centres undefined) | inactive: 1.14 |
| Fc1ccc(NC(=S)C23CC4CC(CC(C4)C2)C3)cc1 | inactive: 1.23 |
| N#Cc1cnoc1N1CCOCC1 | inactive: 1.11 |
| C=CCNc1nc(N)c(C(C)=O)s1 | inactive: 0.932 |
| c1ccc(C2=NN3C(C2)c2ccccc2OC3c2ccc3ccccc3c2)cc1 (centres undefined) | inactive: 1.13 |
| NNC(=O)c1n[nH]c2c1CCC2 | inactive: 1.11 |
| CS(=O)(=O)c1ccc2nc(NS(=O)(=O)c3ccc(F)cc3)sc2c1 | inactive: 1.22 |
| O=[N+]([O-])C1=Cc2ccccc2OC1c1ccccc1 (centres undefined) | inactive: 1.06 |
| CCN(CC)CCN/C(=N\O)c1nonc1N | inactive: 1.27 |
